This is an account of results in paper PMC6468627.

For at least one entry, the source does not settle the construct or the ends of the probe. Where cells or extracts were used, other partners may take part. For part of these data: Negatives hold for the conditions tested.

Data set [1] concerns the target T1, EpCAM (native, on primary lung cancer cells) (Homo sapiens (patient NSCLC tumor cells)) (UniProt P16422).
T1 sequence: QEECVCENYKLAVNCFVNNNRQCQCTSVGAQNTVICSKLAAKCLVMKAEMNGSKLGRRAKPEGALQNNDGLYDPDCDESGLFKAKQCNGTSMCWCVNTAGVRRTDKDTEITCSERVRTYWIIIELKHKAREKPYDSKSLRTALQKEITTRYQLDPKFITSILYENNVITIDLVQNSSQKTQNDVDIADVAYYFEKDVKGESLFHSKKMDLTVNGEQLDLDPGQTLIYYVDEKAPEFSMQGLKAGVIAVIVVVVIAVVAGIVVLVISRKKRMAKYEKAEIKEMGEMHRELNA
Description: competition (flow cytometry). To be noted: not displaced by anti-EpCAM antibody, 50 nM oligonucleotide; DPBS, 25 °C, 30 min; cells (3×10^5) pre-incubated with 1 ng/uL salmon sperm DNA; DNA pools/library heated to 95 °C 5 min then on ice 10 min; pH not stated; protein on the cell surface; label: FAM; single-stranded DNA. (In general: A flow cytometer gives signals particle by particle.)

The target in data set [2] is T1, EpCAM (native, on primary lung cancer cells) (Homo sapiens (patient NSCLC tumor cells)). Description: confocal co-staining of tissue. The following applies: co-localizes with anti-EpCAM antibody on lung cancer sections, 50 nM aptamer; DPBS, 25 °C, 30 min; cells (3×10^5) pre-incubated with 1 ng/uL salmon sperm DNA; DNA pools/library heated to 95 °C 5 min then on ice 10 min; pH not stated; protein on the cell surface; single-stranded DNA.

On to “AGAGAGAGAGAGAGAGAGAGAGAGAGAGAGAGAGAGAGAGAGAGAGAGAGAGAGAGAGAGAGAGAGAGAGAGAGAGAGAG [(AG)40 control oligonucleotide]”, for which the binding result in data set [1] is “no binding”.
In the case of “CTCCTCTGACTGTAACCACGACACGCACAAATGTCAGTGTACCGCACTCGCACATTCTTAGCATAGGTAGTCCAGAAGCC [EPCAM-APT-01 (ECM_01)]”, the binding result in data set [2] is “binds”.
“CTCCTCTGACTGTAACCACGGTGCGCGTACCACCATGTGTACACACTGCATGTTTGGTTAGCATAGGTAGTCCAGAAGCC [EPCAM-APT-02 (ECM_02)]”: the binding result in data set [2] is recorded as “binds”.
